Five substances from paper PMC5852209 can be followed below.

No constants are given. Whether binding was seen depends on the method and setting. For some assays here: Binding can be weak; no strength is given. For some assays here: In cells and extracts the contact can be indirect. For some assays here: Tags and fused reporters may be left off the sequences shown.

In assay [1] the target is T1, PmDAM1-YFP^N (Prunus mume) (UniProt G1UE19).
T1 sequence: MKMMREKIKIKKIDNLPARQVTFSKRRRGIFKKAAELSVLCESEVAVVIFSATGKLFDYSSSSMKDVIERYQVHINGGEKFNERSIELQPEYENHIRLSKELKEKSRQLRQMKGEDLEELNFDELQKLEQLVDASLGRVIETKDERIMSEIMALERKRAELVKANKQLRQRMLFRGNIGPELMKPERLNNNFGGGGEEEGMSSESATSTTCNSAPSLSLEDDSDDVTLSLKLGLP
The assay is described as follows: split reporter; BiFC with split YFP (pCambia1300-YFP-C and pCambia1300-YFP-N), coexpression in leaves of Nicotiana benthamiana, confocal microscopy, YFP excited at 514 nm.

The target in assay [2] is T2, PmDAM2-YFP^N (Prunus mume) (UniProt G1UE20).
T2 sequence: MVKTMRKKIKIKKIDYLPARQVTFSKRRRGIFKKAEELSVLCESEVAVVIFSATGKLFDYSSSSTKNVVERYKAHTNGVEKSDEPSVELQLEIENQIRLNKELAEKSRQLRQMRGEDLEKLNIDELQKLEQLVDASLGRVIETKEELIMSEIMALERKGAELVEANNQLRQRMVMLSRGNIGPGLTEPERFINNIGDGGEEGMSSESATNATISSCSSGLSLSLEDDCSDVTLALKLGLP
Described as above.

The target of a further assay is T3, PmDAM1 (Prunus mume) (UniProt G1UE19).
T3 sequence: T1 sequence
The assay is described as follows: two-hybrid; full length cDNAs in pGBKT7 bait vector and pGADT7 prey vector; each interaction analysis performed three times.

In another assay the target is T4, PmDAM6 (Prunus mume) (UniProt B9A1S9).
T4 sequence: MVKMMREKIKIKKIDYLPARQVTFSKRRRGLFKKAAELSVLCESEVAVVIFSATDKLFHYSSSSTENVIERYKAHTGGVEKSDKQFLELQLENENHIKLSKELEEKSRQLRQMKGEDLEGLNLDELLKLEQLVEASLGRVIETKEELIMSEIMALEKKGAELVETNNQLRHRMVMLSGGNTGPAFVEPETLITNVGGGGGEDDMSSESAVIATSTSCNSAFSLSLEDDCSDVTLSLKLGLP
The assay is described as above.

Assay [3] addresses T5, PmDAM6-YFP^C (Prunus mume) (UniProt B9A1S9).
T5 sequence: T4 sequence
Kind of assay: split reporter; BiFC with split YFP (pCambia1300-YFP-C and pCambia1300-YFP-N), coexpression in leaves of Nicotiana benthamiana, confocal microscopy, YFP excited at 514 nm.

Assay [4] addresses T6, PmDAM4-YFP^C (Prunus mume) (UniProt G1UE22).
T6 sequence: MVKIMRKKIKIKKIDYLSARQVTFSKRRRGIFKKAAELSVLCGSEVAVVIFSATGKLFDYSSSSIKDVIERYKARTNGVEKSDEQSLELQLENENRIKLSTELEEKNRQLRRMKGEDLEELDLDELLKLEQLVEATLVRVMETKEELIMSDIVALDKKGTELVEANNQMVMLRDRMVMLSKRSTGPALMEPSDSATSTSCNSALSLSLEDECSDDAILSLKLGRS
The description is as above.

With PmCBF5-YFP^C (Prunus mume), the binding result in assay [1] is given as “binds”; in assay [2] it was “no binding”.

PmCBF5 (Prunus mume): the binding entry in the assay with PmDAM1 (Prunus mume) and with PmDAM6 (Prunus mume) was “binds” throughout.

With PmCBF6-YFP^N (Prunus mume), the binding entry in assay [3] is on record as “no binding”.

As for PmCBF5-YFP^N (Prunus mume), the binding entry in assay [4] is listed as “no binding”; in assay [3] it was “binds”.

In the case of PmCBF6-YFP^C (Prunus mume), the binding entry in assay [1] is on record as “no binding”.
